The other results are listed elsewhere or left out. These are further read-outs of the screen, such as a control signal, another cell line or another target. No call is given for them. Most of these compounds were active or inconclusive in the main read-out, so they are no random draw. Potencies come from curve fits of mixed quality, noted in brackets.
Test: qHTS Assay for Lipid Storage Modulators in Drosophila S3 Cells;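 on cell number change: cells counted by Cell Tracker Red CMTPX staining in the red channel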
Details: BODIPY lipid droplet fluorescence, 18-24 h; for cell number change: measured here: cell count max response, cells fed with added oleic acid
In short: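 Laser-scanning cytometry quantifies lipid droplet accumulation (500–530 nm total intensity; droplet/cell object ratio) in oleic acid-fed (400 uM added) Drosophila S3 cells treated with a concentration series. 20 uM Triacsin C defined 100% inhibition.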

[1] = measured here: cell number channel AC50, cells fed with added oleic acid
[2] = measured here: lipid fluorescence (Fed channel) AC50, cells fed with added oleic acid

| SMILES | cell number change [%] | AC50 [1] | AC50 [2] |
| --- | --- | --- | --- |
| CCCCC(NC(=O)Cc1c(C)c2cc3c(C)c(C)oc3c(C)c2oc1=O)C(=O)O (stereo not drawn) | 37.5 | 0.517 µM [rising, full curve, poor fit] | 29.1 µM [rising, single point] |
| COc1ccc(-c2noc(CSc3nnc(CCc4ccccc4)n3-c3ccccc3)n2)cc1OC | 10.8 | – | 0.0259 µM [rising, full curve, poor fit] |
| CC(=O)c1cccc(NC(=O)C(C)OC(=O)CCC2CCCCC2)c1 (stereo not drawn) | -13.3 | 4.61 µM [falling, single point] | 0.651 µM [falling, full curve, poor fit] |
| COc1ccccc1-c1cc(C(=O)N2CCN(c3ccccc3)CC2)no1 | 33 | 32.6 µM [rising, single point] | 29.1 µM [rising, single point] |
| O=c1[nH]c(-c2ccc(Cl)cc2)nc(=S)[nH]1 | 6.09 | – | 0.651 µM [falling, single point] |
| O=[n+]1c2c(n([O-])c3cc(F)ccc31)CCCC2 | 20.7 | – | 29.1 µM [rising, single point] |
| CCc1ncc(CN2CCCC(C(=O)Nc3ccc(-c4cscn4)cc3)C2)cn1 (stereo not drawn) | 114 | 29.1 µM [rising, partial curve, poor fit] | – |
| CCOC(=O)c1cc(NC(=O)N(CC)CC)c(C)nc1C | 30 | – | 0.184 µM [rising, full curve, poor fit] |
| Cc1ccc(NC(=O)CN(C)c2ccc(S(=O)(=O)N3CCN(C)CC3)cn2)cc1 | -28.3 | – | 14.6 µM [rising, partial curve, poor fit] |
| Oc1ccc(C2C=C(c3ccc(F)cc3)Nc3ncnn32)cc1 (stereo not drawn) | 21.5 | – | 0.103 µM [rising, full curve, poor fit] |
| CCOc1ccc2nc(NC(=O)C3CCCN(S(=O)(=O)c4cccs4)C3)sc2c1 (stereo not drawn) | -62.7 | 18.4 µM [falling, partial curve] | 9.2 µM [falling, partial curve] |
| COc1ccc(-n2c(O)c(C=NCc3ccccn3)c3ccccc3c2=O)c(OC)c1 | 11.3 | – | 0.651 µM [rising, full curve, poor fit] |
| CCOc1ccc(NC(=O)CN(C)C(=O)c2ccc(C)o2)cc1OCC | 38.3 | 3.26 µM [rising, partial curve] | 29.1 µM [rising, single point] |
| CCCc1ccc(S(=O)(=O)N2CCN(C(C)C(=O)NC3CCCC3)CC2)cc1 (stereo not drawn) | 201 | 29.1 µM [rising, single point] | – |
| Cc1cc(C)c2[nH]c(=O)c(CN(Cc3ccc4c(c3)OCO4)Cc3nnnn3C3CCCC3)cc2c1 | -12.5 | 0.461 µM [rising, full curve, poor fit] | 16.4 µM [rising, partial curve] |
| CC(OC(=O)CN1C(=O)NC2(CCCCC2C)C1=O)c1ccccc1 (stereo not drawn) | 8.96 | 0.00517 µM [falling, full curve, poor fit] | 0.0206 µM [falling, full curve] |
| COc1cccc(N2CCN(C(=O)c3oc4ccccc4c3NC(=O)CCc3cc(OC)no3)CC2)c1 | -5.67 | – | – |
| CC(=O)C1=C(O)C(=O)N(c2cccnc2)C1c1cccc([N+](=O)[O-])c1 (stereo not drawn) | -14.3 | – | 18.4 µM [falling, single point] |
| COc1cc(Cl)c(S(=O)(=O)N2CCOCC2)cc1Cl | – | – | 0.651 µM [falling, full curve] |
| O=C(Nc1ccc([N+](=O)[O-])c(NC(=O)C2CCCO2)c1)C1CCCO1 (stereo not drawn) | 39.2 | 23.1 µM [rising, single point] | 2.31 µM [falling, single point] |
| CC(C)NC1=C(Cl)C(=O)c2ccccc2C1=O | -11.1 | 4.11 µM [falling, single point] | 2.31 µM [rising, single point] |
| CCOc1cc(C(=O)O)ccc1OCCOc1ccccc1 | 8.97 | – | – |
| O=C(COC(=O)c1ccco1)Nc1ccc([N+](=O)[O-])cc1Cl | -3.57 | 6.51 µM [falling, single point] | – |
| COc1cccc(NC(=O)CN(C)S(=O)(=O)c2ccc(C)cc2)c1 | 7.59 | – | 1.3 µM [rising, full curve] |
| COC(=O)[C@H](C)[C@H]1C[C@]1(C)[C@H](NC(=O)OCc1ccccc1)c1ccccc1 | 12.8 | – | 29.1 µM [rising, single point] |
| O=C(c1cccc2ccccc12)N1CCN(Cc2ccccc2F)CC1 | – | – | 2.06 µM [falling, partial curve] |

Some of the entries so far, bar-delimited:
SMILES | cell number change [%] | AC50 [1] | AC50 [2]
COc1ccc(-c2noc(CSc3nnc(CCc4ccccc4)n3-c3ccccc3)n2)cc1OC | 10.8 | – | 0.0259 µM [rising, full curve, poor fit]
CC(=O)c1cccc(NC(=O)C(C)OC(=O)CCC2CCCCC2)c1 (stereo not drawn) | -13.3 | 4.61 µM [falling, single point] | 0.651 µM [falling, full curve, poor fit]
COc1ccccc1-c1cc(C(=O)N2CCN(c3ccccc3)CC2)no1 | 33 | 32.6 µM [rising, single point] | 29.1 µM [rising, single point]
O=c1[nH]c(-c2ccc(Cl)cc2)nc(=S)[nH]1 | 6.09 | – | 0.651 µM [falling, single point]
O=[n+]1c2c(n([O-])c3cc(F)ccc31)CCCC2 | 20.7 | – | 29.1 µM [rising, single point]
CCc1ncc(CN2CCCC(C(=O)Nc3ccc(-c4cscn4)cc3)C2)cn1 (stereo not drawn) | 114 | 29.1 µM [rising, partial curve, poor fit] | –
CCOC(=O)c1cc(NC(=O)N(CC)CC)c(C)nc1C | 30 | – | 0.184 µM [rising, full curve, poor fit]
Cc1ccc(NC(=O)CN(C)c2ccc(S(=O)(=O)N3CCN(C)CC3)cn2)cc1 | -28.3 | – | 14.6 µM [rising, partial curve, poor fit]
Oc1ccc(C2C=C(c3ccc(F)cc3)Nc3ncnn32)cc1 (stereo not drawn) | 21.5 | – | 0.103 µM [rising, full curve, poor fit]
CCOc1ccc2nc(NC(=O)C3CCCN(S(=O)(=O)c4cccs4)C3)sc2c1 (stereo not drawn) | -62.7 | 18.4 µM [falling, partial curve] | 9.2 µM [falling, partial curve]
COc1ccc(-n2c(O)c(C=NCc3ccccn3)c3ccccc3c2=O)c(OC)c1 | 11.3 | – | 0.651 µM [rising, full curve, poor fit]
CCOc1ccc(NC(=O)CN(C)C(=O)c2ccc(C)o2)cc1OCC | 38.3 | 3.26 µM [rising, partial curve] | 29.1 µM [rising, single point]
CCCc1ccc(S(=O)(=O)N2CCN(C(C)C(=O)NC3CCCC3)CC2)cc1 (stereo not drawn) | 201 | 29.1 µM [rising, single point] | –
Cc1cc(C)c2[nH]c(=O)c(CN(Cc3ccc4c(c3)OCO4)Cc3nnnn3C3CCCC3)cc2c1 | -12.5 | 0.461 µM [rising, full curve, poor fit] | 16.4 µM [rising, partial curve]
CC(OC(=O)CN1C(=O)NC2(CCCCC2C)C1=O)c1ccccc1 (stereo not drawn) | 8.96 | 0.00517 µM [falling, full curve, poor fit] | 0.0206 µM [falling, full curve]

(listing goes on)

| SMILES | cell number change [%] | AC50 [1] | AC50 [2] |
| --- | --- | --- | --- |
| Cn1nc(C(F)(F)F)c(-c2ccc(Br)cc2)c1NC(=O)C1CCC1C(=O)O (stereo not drawn) | -37.8 | 7.31 µM [falling, full curve, poor fit] | 2.06 µM [falling, partial curve] |
| CCSc1nnc(-c2cccnc2)n1-c1ccc(Cl)c(C)c1 | 12 | – | 0.103 µM [rising, full curve, poor fit] |
| CCN(CC)S(=O)(=O)c1ccc(N2CCOCC2)c(NS(=O)(=O)c2cccs2)c1 | 0.711 | 0.517 µM [rising, full curve] | 8.2 µM [falling, partial curve] |
| O=C(Nc1ccc([N+](=O)[O-])cc1Br)c1cc2ccccc2nc1Cl | 11 | – | 0.651 µM [rising, full curve] |
| CC1(C(=O)OCC(=O)Nc2ccc(C(N)=O)cc2)CC1(Cl)Cl (stereo not drawn) | 49.6 | 29.1 µM [rising, single point] | 0.651 µM [falling, partial curve, poor fit] |
| COc1ccc(Nc2ccc(C(N)=O)cc2[N+](=O)[O-])cc1 | 12.1 | 0.184 µM [rising, full curve, poor fit] | 6.51 µM [rising, single point] |
| CCNc1nc(NCC)nc(Oc2ccc(OCc3ccccc3)nn2)n1 | 44 | 29.1 µM [rising, partial curve, poor fit] | 29.1 µM [rising, single point] |
| O=C1C=C(c2ccccc2)C[C@@H](c2ccc(Cl)cc2)C1 | -15.2 | – | 29.1 µM [rising, single point] |
| O=C(CCl)Nc1ccc(-c2ccccc2)cc1 | -34.4 | 0.651 µM [falling, full curve] | 0.58 µM [falling, full curve] |
| COc1cccc(/C=C2\Oc3cc(OCC(=O)N4CCC[C@H]4C(=O)O)ccc3C2=O)c1 | 23.3 | – | 29.1 µM [rising, single point] |
| CCn1c(O)c(N=NC(=O)c2cccc(S(=O)(=O)N3CCCCC3)c2)c2ccccc21 | -15.6 | – | 29.1 µM [falling, single point] |
| Cc1cc(-c2[nH]nc3c2C(c2cccc(O)c2)C(C#N)=C(N)O3)c(C)s1 (stereo not drawn) | 4.2 | – | 2.91 µM [rising, full curve, poor fit] |
| COC(=O)C1CCN(C(=O)CN2C(=O)NC(CCc3ccccc3)C2=O)CC1 (stereo not drawn) | 9.69 | – | 0.184 µM [falling, full curve, poor fit] |
| Nc1nc(SCC(=O)Nc2cc(-c3ccccc3)nn2-c2ccccc2)n[nH]1 | – | 0.184 µM [rising, full curve] | 0.411 µM [rising, full curve] |
| COc1ccc(CCNC(=O)c2ccc(N(C)S(=O)(=O)c3ccc(C)cc3)cc2)cc1OC | -49.2 | 10.3 µM [falling, partial curve] | 10.3 µM [falling, partial curve] |
| CCCc1nnc(SCC(=O)Nc2cc(C)on2)n1CCOC | – | – | 5.8 µM [rising, partial curve, poor fit] |
| CCN(CC)CCCN=Cc1c(O)n(-c2ccc(C)cc2)c(=O)c2ccccc12 | 1.49 | – | 0.731 µM [falling, full curve, poor fit] |
| Cc1cccc(Oc2ccccc2NC(=O)CN2C(=O)NC3(CCCC3)C2=O)c1 | 20.9 | – | – |
| CC(=O)Nc1ccc(N2C(=O)CSC2c2ccccc2[N+](=O)[O-])cc1 (stereo not drawn) | -28.5 | 0.00731 µM [falling, full curve, poor fit] | – |
| CS(=O)(=O)N(CC(=O)N1CCc2ccccc2C1)c1cccc(F)c1 | 16.8 | 0.326 µM [rising, full curve, poor fit] | 0.259 µM [falling, full curve] |
| CCN(CC)CCN(C(=O)c1ccc(S(=O)(=O)N2CCOCC2)cc1)c1nc2cc3c(cc2s1)OCCO3 | 24 | – | 16.4 µM [rising, partial curve, poor fit] |
| CC1CCCCN1Cc1ccc(N(C)C)cc1 (stereo not drawn) | -32.2 | 29.1 µM [falling, single point] | 16.4 µM [falling, single point] |
| CCC(C)[C@H](NC(=O)NCc1ccco1)C(=O)OC (stereo partly drawn) | -44.1 | 23.1 µM [falling, single point] | 29.1 µM [falling, single point] |
| O=c1c2ccccc2sn1-c1cc(S(=O)(=O)N2CCOCC2)ccc1N1CCCC1 | -88 | 7.31 µM [falling, partial curve] | – |
| COc1cccc(C(=O)NCCS(=O)(=O)NCc2ccccn2)c1 | 36.7 | 29.1 µM [rising, single point] | 29.1 µM [rising, single point] |
| O=C(Cn1ccc(C(F)(F)F)n1)NNC(=O)c1ccco1 | 16.4 | – | 6.51 µM [rising, partial curve, poor fit] |

Reference: PubChem BioAssay AID2685 (National Center for Advancing Translational Sciences (NCATS), 2010)
